Source: patent publication US20240390531A1 (IMAGINAB, published 2024)

Target: cynomolgus-FAP (cynomolgus)
Assay: ELISA, cross-reactivity (FIG. 92)

binding: binds
B1: IAB16M2-43 (other)
chain: QVQLQESGPGLVKPSETLSLTCTVSGFSLTNYDINWIRQPPGKGLEWIGLIWTGGGTNYNPSLKSRVTISKDTSKNQFSLKLSSVTAADTAVYYCVRGGPLVWYALDYWGQGTLVTVSSGSTSGGGSGGGSGGGGSSDIQMTQSPSSLSASVGDRVTITCKASQDVSTAVAWYQQKPGKAPKLLIYSASYRYTGVPSRFSGSGSGTDFTFTISSLQPEDIATYYCQQHYSNPRTFGGGTKVEIKEPKSSDKTHTCPPCPPCGGGSSGGGSGGQPREPQVYTLPPSREEMTKNQVSLTCLVKGFYPSDIAVEWESNGQPENNYKTTPPVLDSDGSFFLYSKLTVDKSRWQQGNVFSCSVMHEALHNHYTQKSLSLSPG

These are yes or no findings as the source states them, for the method shown. Binding can be weak; no strength is given.
